The record followed here is patent publication US20170321218A1, “FACTOR XIA-SPECIFIC APTAMERS” (CANADIAN BLOOD SERVICES, published 2017).

Negatives hold for the conditions tested. For some assays here: A weaker result is weaker than the reference pair of the same experiment. For some assays here: Construct, isoform or probe ends are uncertain for at least one entry.

The target in the first data set is Factor XI (FXI zymogen) (UniProt P03951). Put plainly: inhibition of the protein. The conditions noted are these: 10 uM; thrombin activation of FXI with dextran sulphate unaffected; purified native protein; single-stranded DNA.
On to “GAATTCTAATACGACTCACTATAAACCTATCGGACTATTGTTAGTGATTTTTATAGTGTGCGTCCAACACATCG [FELIAP (Apt10-10)]”, for which the “functional effect of the aptamer” value is listed as “not active”.

The next data set deals with Factor XIa (FXIa). Put plainly: inhibition of the protein. The conditions noted are these: S2366 amidolysis, slightly active; described as barely detectable affinity; purified native protein; single-stranded DNA; dose not given here.
Regarding “GAATTCTAATACGACTCACTATATGTCACTCTGATCAAAAATTTTGTAGTCATCTTGTTATGCGCGTCCAACACATCG [APT10_E]”, the “functional effect of the aptamer” value is “less active”.

The data set is the same for the next values; noted with them: S2366 amidolysis, slightly active; purified native protein; single-stranded DNA; dose not given here.
“GAATTCTAATACGACTCACTATATACGTGGTTCTTTTTTTAGGGAGTTCGATCCTGAGGCCTGCGTCCAACACATCG [NRMAPT 1]”: the “functional effect of the aptamer” value is “less active”.

Staying with this data set, now noted: S2366 amidolysis, slightly active; purified native protein; single-stranded DNA; variant of FELIAP (Apt10-10); dose not given here.
Consider “GAATTCTAATACGACTCACTATAAACCTATCGGACTATTGTTAGTGATTTTTAGAGTGGCGTCCAACACATCG [APT10_D]”, for which the “functional effect of the aptamer” value was “less active”.

The same data set, now with this note: S2366 amidolysis; equivalent to SCRAPT; purified native protein; single-stranded DNA; variant of FELIAP (Apt10-10); dose not given here.
As for “TAAACCTATCGGACTATTGTTAGTGATTTTTA [FELIAP_32]”, the “functional effect of the aptamer” value is “not active”.

The data set is the same for the next values; noted with them: S2366 amidolysis; purified native protein; single-stranded DNA; dose not given here.
In the case of “GAATTCTAATACGACTCACTATATGGGATGGCGTGGGAGGGCTGTAGTGAGCGTTCATTGGGTGCGTCCAACACATCG [Apt10-7]”, the “functional effect of the aptamer” value was “not active”. Consider “GAATTCTAATACGACTCACTATATGGGATGGCGTGGGAGGGCTGTAGTGAGCGTTTAGTGGGTGCGTCCAACACATCG [Apt10-9]”, for which the “functional effect of the aptamer” value is “not active”. On the same count and under the same terms, the same measure for “GAATTCTAATACGACTCACTATACACGTGGTTCTTTATTTAGTTATGTCGTCGTTTTTTCATGCGTCCAACACATCG [NRMAPT15]”: “not active”; for “GAATTCTAATACGACTCACTATAGGGAGGGCGTGGATGGCTGTTGTGAGGTCTTGTGTTTGTTGCGTCCAACACATCG [Apt10-5]”: “not active”; for “GAATTCTAATACGACTCACTATATGGGATGGCGTGGGAGGGCTGTAGGGAGCGTTCAGTGGGTGCGTCCAACACATCG [Apt10-3 (Apt4-2)]”: “not active”.

For “GAATTCTAATACGACTCACTATACACAAAAACTATATACCTGGTTCTTTTTTTAGTTTTTCGTGCGTCCAACACATCG [NRMAPT19]”, the “functional effect of the aptamer” value was “not active”. The same measure, in the same setting: the same measure for “GAATTCTAATACGACTCACTATACATAAAAACTATATACGTGGTTCTTTTTTTAGTTTTTCGTGCGTCCAACACATCG [NRMAPT 3]”: “not active”; for “GAATTCTAATACGACTCACTATACATAAAAACTATATACGTGGTTCTTTTTTTAGTTTTTCTTGCGTCCAACACATCG [NRMAPT11]”: “not active”; for “GAATTCTAATACGACTCACTATAGCGTCCAACACATCGTATTCATGCGTCCAACACATCG [Apt10-1 (Apt4-1)]”: “not active”. Still for that read-out and setting: the same measure for “GAATTCTAATACGACTCACTATATGGGATGGCGTGGGAGGGCTGTAGTGAGCGTTCAGTGGGTGCGTCCAACACATCG [Apt10-4 (Apt4-7)]”: “not active”; for “GAATTCTAATACGACTCACTATACATAAAAACTATATACGTTGTTCTTTTTTTAGTTTTTCGTGCGTCCAACACATCG [NRMAPT21]”: “not active”.

For the sequence “GAATTCTAATACGACTCACTATATGGGATGGCGTGGGAGGGCTGTAGGGAGCGTTTAGTGGGTGCGTCCAACACATCG [Apt10-6]”, the “functional effect of the aptamer” value is listed as “not active”.

As to “GAATTCTAATACGACTCACTATACATAAAAACTATATACTTGGTTCTTTTTTTAGTTTTTCGTGCGTCCAACACATCG [NRMAPT18]”, the “functional effect of the aptamer” value is “not active”. On the same count and under the same terms, the result for “GAATTCTAATACGACTCACTATAAACACACAAACCTATTTTTCGATTTTCCTGCCATCACTCCGCGTCCAACACATCG [NRMAPT20]” reads “not active”.

As for “GAATTCTAATACGACTCACTATAGGGAGGGCGTGGATGGCTGGTGTGAGGTCTTGTGTTTGTTGCGTCCAACACATCG [Apt10-8 (Apt4-3)]”, the “functional effect of the aptamer” value is “not active”. As for “GAATTCTAATACGACTCACTATAGCGTATACGTGGTTCTTTTTTCGCAGGATAGTATGTATTTGCGTCCAACACATCG [NRMAPT 6]”, the “functional effect of the aptamer” value is on record as “not active”. Still for that read-out and setting: the result for “GAATTCTAATACGACTCACTATACACTGCGTCCAACACATCGTATTCATGCGTCCAACACATCG [Apt10-2]” reads “not active”.

The data set is the same for the next values; noted with them: S2366 amidolysis; purified native protein; single-stranded DNA; variant of FELIAP (Apt10-10); dose not given here.
With “GAATTCTAATACGACTCACTATAAACCTATCGGACTATTGTTAGTTATTTTTATAGTGTGCGTCCAACACATCG [NRMAPT16]”, the “functional effect of the aptamer” value is listed as “not active”.

In the case of “GAATTCTAATACGACTCACTATAAACCTATCGGACTATTGTCAGTGATTTTTATAGTGTGCGTCCAACACATCG [NRMAPT17]”, the “functional effect of the aptamer” value is given as “not active”.

In the case of “GAATTCTAATACGACTCACTATAAACCTATCGGACTATTGTTAGTGATTTTTATAGTTTGCGTCCAACACATCG [APT10_A]”, the “functional effect of the aptamer” value was “active”. As to “GAATTCTAATACGACTCACTATAAACCTATCTGACTATTGTTAGTGATTTTTATAGTGTGCGTCCAACACATCG [NRMAPT 9]”, the “functional effect of the aptamer” value is given as “not active”.

Take “GAATTCTAATACGACTCACTATAAACCTATCGGACTATTGTTATTGATTTTTATAGTGTGCGTCCAACACATCG [NRMAPT10]”: the “functional effect of the aptamer” value is recorded as “not active”. On the same count and under the same terms, the result for “GAATTCTAATACGACTCACTATAAACCTATCGGACTATTGTTAGTGATTTTTATATTGTGCGTCCAACACATCG [APT10_B]” reads “active”; that for “GAATTCTAATACGACTCACTATAAACCTATCGTACTATTGTTAGTGATTTTTATAGTGTGCGTCCAACACATCG [NRMAPT 7]”, “not active”; that for “GAATTCTAATACGACTCACTATAAACCTATTGGACTATTGTTAGTGATTTTTATAGTGTGCGTCCAACACATCG [NRMAPT14]”, “not active”.

Still in this data set, the particulars now being: S2366 amidolysis; retains all anti-FXIa activity; purified native protein; single-stranded DNA; variant of FELIAP (Apt10-10); dose not given here.
As for “CTATAAACCTATCGGACTATTGTTAGTGATTTTTATAG [FELIAP_38]”, the “functional effect of the aptamer” value is recorded as “active”.

Still in this data set, the particulars now being: highest inhibition of S2366 amidolysis; purified native protein; single-stranded DNA; dose not given here.
As to “GAATTCTAATACGACTCACTATAAACCTATCGGACTATTGTTAGTGATTTTTATAGTGTGCGTCCAACACATCG [FELIAP (Apt10-10)]”, the “functional effect of the aptamer” value is “active”.
